{"source": "PubChem BioAssay AID1347426", "about": "(Functional Genomics Laboratory (NCATS/FGL), 2020)", "note": "In all, about 31,000 sequences went through this assay and about 1,400 (4.5%) were called active.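 Rule for the calls: active = median seed-adjusted z-score above 1 or below -1; inactive = the rest.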 The list shows a part of the results.", "data": [{"experiment": "Novel Modifiers of Survival Motor Neuron (SMN) Protein: Gene Identification via Genome-wide siRNA Screen;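 note: luminescence tracks full-length SMN protein made from the SMN2 reporter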", "conditions": "HEK293T SMN2-luciferase reporter, siRNA knockdown, 72 h; actives lie on both sides", "method_in_brief": "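HEK293T cells stably expressing an SMN2 splicing/cDNA-luciferase reporter were reverse-transfected with a druggable-genome siRNA library and read by luminescence at 72 hours; hits defined by MAD score above 1.0 or below -1.0.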", "values": [{"sequence": "UCACAGCACUUGUGAGGAATT against SMPD1", "median seed-adjusted z-score": "inactive: 0.353"}, {"sequence": "GGAUCUGGGACUAAGGGUATT against PCDHB3", "median seed-adjusted z-score": "inactive: 0.304"}, {"sequence": "CCAUAUGAGUGUUCCGAAUTT against ZFP1", "median seed-adjusted z-score": "inactive: 0.0391"}, {"sequence": "CACUAUUUCCUGAUACAGATT against POLR3G", "median seed-adjusted z-score": "inactive: -0.485"}, {"sequence": "GGAAAUCUCUUAGUAAUGATT against TAAR8", "median seed-adjusted z-score": "inactive: 0.0792"}, {"sequence": "GGACAUGCAAUGAAUUCAATT against CTSZ", "median seed-adjusted z-score": "inactive: -0.393"}, {"sequence": "CCCAUGUUUCUAAUAAAUATT against ZNF415", "median seed-adjusted z-score": "inactive: 0.222"}, {"sequence": "GAUUAGAUCUAAACAAUCUTT against TTRAP", "median seed-adjusted z-score": "inactive: -0.33"}, {"sequence": "GCAUCUAGGUACCAAUGGATT against OTUD7B", "median seed-adjusted z-score": "inactive: 0.226"}, {"sequence": "GCAGAUGAGUCAUCUGUCATT against RBMS1", "median seed-adjusted z-score": "inactive: 0.798"}, {"sequence": "GAUCCUAUCUUACUAACCATT against IL7R", "median seed-adjusted z-score": "inactive: 0"}, {"sequence": "GCUGAGAUGCGUAAGCAAATT against USP48", "median seed-adjusted z-score": "inactive: 0.397"}, {"sequence": "CCCGGUCACUUCUGAGAAATT against ZNF696", "median seed-adjusted z-score": "inactive: 0.17"}, {"sequence": "CACUGCAAAUUAUUCCAUATT against RNF114", "median seed-adjusted z-score": "inactive: 0.452"}, {"sequence": "GCGCCGUGGUCAACAUCUUTT against SLC32A1", "median seed-adjusted z-score": "inactive: -0.251"}, {"sequence": "CCUUAUCGCUCAACAUGAATT against STK38", "median seed-adjusted z-score": "inactive: -0.961"}, {"sequence": "AGUUUUCCUUCCACACUAATT against RBP3", "median seed-adjusted z-score": "inactive: 0"}, {"sequence": "UGACAGUAGUUUAUCAAAATT against AREG", "median seed-adjusted z-score": "inactive: 0.104"}, {"sequence": "CGGCAUCCUAUGUUAGAAATT against PRKAR1A", "median seed-adjusted z-score": "inactive: 0.428"}, {"sequence": "CAUUCACCACAAUAGCUAUTT against GPR1", "median seed-adjusted z-score": "inactive: 0.0609"}, {"sequence": "ACACGUUCAGUGUCCCGAATT against IL28RA", "median seed-adjusted z-score": "inactive: 0"}, {"sequence": "AGUUACUACCUUAUCCUCATT against POU2F2", "median seed-adjusted z-score": "inactive: 0.163"}, {"sequence": "CCUUAGGGAUUGUCAUCAATT against KREMEN1", "median seed-adjusted z-score": "inactive: 0"}, {"sequence": "CGCUCACACUGGGUUCCAATT against SLC34A1", "median seed-adjusted z-score": "inactive: 0.139"}, {"sequence": "GAAGAAUACCGGAAUAGCATT against CNDP1", "median seed-adjusted z-score": "inactive: 0.203"}, {"sequence": "GGACCUCCCUAGAAAGAAATT against TRERF1", "median seed-adjusted z-score": "inactive: -0.0952"}, {"sequence": "GGAUGUUAGUAAACUCUCUTT against PSMA4", "median seed-adjusted z-score": "inactive: 0"}, {"sequence": "GGAAAAUCGCAAUACUAUATT against CALR3", "median seed-adjusted z-score": "inactive: -0.0828"}, {"sequence": "CUAGUUACCUGGACAAAGATT against THRA", "median seed-adjusted z-score": "inactive: 0.13"}, {"sequence": "CAAUCUCAAUCGUUGCUGATT against ATP5J2", "median seed-adjusted z-score": "inactive: 0.00511"}, {"sequence": "GAACUUGUCUUGCGCAAAATT against ZEB1", "median seed-adjusted z-score": "inactive: -0.163"}, {"sequence": "CCAUGAUCCUCUAACAUCATT against PAN3", "median seed-adjusted z-score": "inactive: 0.349"}, {"sequence": "GUGCUAACUCAAUUCCAUATT against SSBP3", "median seed-adjusted z-score": "inactive: 0.00592"}, {"sequence": "AAUUAUCACGACACUCUUATT against DNASE2B", "median seed-adjusted z-score": "inactive: 0.86"}, {"sequence": "CACUAGCCUUGUUACCGUUTT against ERMP1", "median seed-adjusted z-score": "inactive: 0.231"}, {"sequence": "GAUGGGACAUCGUUGCUCATT against OASL", "median seed-adjusted z-score": "active: 1.02"}, {"sequence": "GCCGCUUUCGGAAUAAGAUTT against DGKZ", "median seed-adjusted z-score": "inactive: 0"}, {"sequence": "GCAAUUACCUGGUUGAUGUTT against ABAT", "median seed-adjusted z-score": "inactive: 0.0191"}, {"sequence": "GAAAAACGGUGAACGAGUUTT against IGF2BP1", "median seed-adjusted z-score": "inactive: -0.993"}, {"sequence": "GGUUAAUCAUCUCAUUUUATT against ABHD5", "median seed-adjusted z-score": "inactive: 0.131"}, {"sequence": "GGCUCCAAAUCGCAUCGUATT against CADPS", "median seed-adjusted z-score": "inactive: 0.551"}, {"sequence": "GUACAUGCUUUGUUAGGGATT against ISL1", "median seed-adjusted z-score": "inactive: 0.138"}, {"sequence": "CUUAUACGCUGGAUUCGUATT against NRK", "median seed-adjusted z-score": "inactive: 0.0687"}, {"sequence": "CGAUAUAGAUCCUAAUAAUTT against GNPDA2", "median seed-adjusted z-score": "inactive: -0.422"}, {"sequence": "CUGCUAAGCCUGUAAGUGATT against UBE2U", "median seed-adjusted z-score": "inactive: -0.0545"}, {"sequence": "GCAUGUCUCUGUCUUCUUUTT against THRB", "median seed-adjusted z-score": "inactive: 0.324"}, {"sequence": "GCAUGUCUAUGCCUACUCUTT against CSF3R", "median seed-adjusted z-score": "inactive: -0.491"}, {"sequence": "GAAUCUUGCUUUAACAUGATT against ANXA7", "median seed-adjusted z-score": "inactive: 0.671"}, {"sequence": "GGACCGAAACAGGAUGUCATT against GNA14", "median seed-adjusted z-score": "inactive: 0.363"}, {"sequence": "GGCGACUUUUUAUGAUACATT against CIDEC", "median seed-adjusted z-score": "inactive: 0.189"}, {"sequence": "GGAAUGCAGUCGACCUACATT against GNPDA1", "median seed-adjusted z-score": "inactive: 0.0252"}, {"sequence": "CUUCAUUGCUUACCAGAAATT against CD99", "median seed-adjusted z-score": "inactive: 0"}, {"sequence": "GGCUUCAUCCAGAAAGGAATT against ZNF350", "median seed-adjusted z-score": "inactive: 0.133"}, {"sequence": "GGCUACAGAUGUGAAAGAUTT against PRDM14", "median seed-adjusted z-score": "inactive: 0.316"}, {"sequence": "CGACCUUUCUAUCCAGACUTT against ZFP90", "median seed-adjusted z-score": "inactive: 0"}, {"sequence": "UCUGUUUUGUAAUUUAAGATT against CLDN4", "median seed-adjusted z-score": "inactive: -0.0241"}, {"sequence": "CGAACCAUUUCAUCACGUATT against MARS2", "median seed-adjusted z-score": "inactive: -0.00523"}, {"sequence": "GAGAUCGGAUGGUACGUUUTT against CCBL2", "median seed-adjusted z-score": "inactive: 0.184"}, {"sequence": "GGCUCUUACGGCAAGGUGATT against STK11", "median seed-adjusted z-score": "inactive: 0.348"}, {"sequence": "GGCUGUAAUAUAAAUCGAATT against CENPE", "median seed-adjusted z-score": "inactive: 0.298"}, {"sequence": "GACAAUGACCAAAUCAAUATT against TGFBR3", "median seed-adjusted z-score": "inactive: 0.285"}, {"sequence": "GCUCCUCACUUACCCAGUATT against ZNF354C", "median seed-adjusted z-score": "inactive: 0.648"}, {"sequence": "GGAUACCAGUGGAGGAUAATT against MPP7", "median seed-adjusted z-score": "inactive: 0.163"}, {"sequence": "GCUUCUGAAAUGAACCGAATT against DDHD2", "median seed-adjusted z-score": "inactive: 0.447"}, {"sequence": "GUCCUACGCCUGUUACUAUTT against LGMN", "median seed-adjusted z-score": "inactive: 0.391"}, {"sequence": "GCAAAGUGCGCUCAUUUUATT against NEUROG3", "median seed-adjusted z-score": "inactive: 0.212"}, {"sequence": "GCACGGAGCUGAACGAUGATT against CDH23", "median seed-adjusted z-score": "inactive: -0.918"}, {"sequence": "AGCUUUUGUUGAGAGUUCATT against YY1", "median seed-adjusted z-score": "active: 1.94"}, {"sequence": "GUGACUAACAGUAACCCUATT against HLCS", "median seed-adjusted z-score": "inactive: 0.0646"}]}]}
